Data on 2 substances can be found in publication PMC12041782.

The chains behind the UniProt entries cited, without tags or fusion partners. Residues count along the entry.
UniProt Q9BZS1, residues 1-417: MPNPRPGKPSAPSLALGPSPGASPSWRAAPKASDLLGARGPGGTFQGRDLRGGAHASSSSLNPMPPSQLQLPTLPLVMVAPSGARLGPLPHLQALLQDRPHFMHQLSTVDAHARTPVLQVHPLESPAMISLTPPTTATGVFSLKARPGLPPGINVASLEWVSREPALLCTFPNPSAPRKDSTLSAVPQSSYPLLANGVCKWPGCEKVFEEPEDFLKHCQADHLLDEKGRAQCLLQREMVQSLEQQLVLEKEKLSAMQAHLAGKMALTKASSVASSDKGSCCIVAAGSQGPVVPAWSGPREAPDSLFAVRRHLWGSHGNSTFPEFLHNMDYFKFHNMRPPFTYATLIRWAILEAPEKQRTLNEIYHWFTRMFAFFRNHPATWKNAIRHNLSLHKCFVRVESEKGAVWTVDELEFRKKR
UniProt P51114: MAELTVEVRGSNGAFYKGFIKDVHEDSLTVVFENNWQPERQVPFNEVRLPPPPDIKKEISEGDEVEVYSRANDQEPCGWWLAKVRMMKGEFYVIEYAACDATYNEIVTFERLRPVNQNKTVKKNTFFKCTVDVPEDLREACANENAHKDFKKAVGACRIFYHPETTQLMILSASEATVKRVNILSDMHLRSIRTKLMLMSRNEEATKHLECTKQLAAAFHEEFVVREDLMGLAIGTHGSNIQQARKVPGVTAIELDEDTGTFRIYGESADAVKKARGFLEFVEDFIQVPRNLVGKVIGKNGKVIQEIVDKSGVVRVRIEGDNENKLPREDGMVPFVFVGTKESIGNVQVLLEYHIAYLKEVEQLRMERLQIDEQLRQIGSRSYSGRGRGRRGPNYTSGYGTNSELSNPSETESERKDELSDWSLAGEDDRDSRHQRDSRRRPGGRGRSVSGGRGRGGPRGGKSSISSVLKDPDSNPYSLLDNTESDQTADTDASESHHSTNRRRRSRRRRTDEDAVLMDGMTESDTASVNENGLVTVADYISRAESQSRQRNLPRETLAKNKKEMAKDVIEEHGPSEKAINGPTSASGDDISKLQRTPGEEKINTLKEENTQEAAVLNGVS
UniProt P51116: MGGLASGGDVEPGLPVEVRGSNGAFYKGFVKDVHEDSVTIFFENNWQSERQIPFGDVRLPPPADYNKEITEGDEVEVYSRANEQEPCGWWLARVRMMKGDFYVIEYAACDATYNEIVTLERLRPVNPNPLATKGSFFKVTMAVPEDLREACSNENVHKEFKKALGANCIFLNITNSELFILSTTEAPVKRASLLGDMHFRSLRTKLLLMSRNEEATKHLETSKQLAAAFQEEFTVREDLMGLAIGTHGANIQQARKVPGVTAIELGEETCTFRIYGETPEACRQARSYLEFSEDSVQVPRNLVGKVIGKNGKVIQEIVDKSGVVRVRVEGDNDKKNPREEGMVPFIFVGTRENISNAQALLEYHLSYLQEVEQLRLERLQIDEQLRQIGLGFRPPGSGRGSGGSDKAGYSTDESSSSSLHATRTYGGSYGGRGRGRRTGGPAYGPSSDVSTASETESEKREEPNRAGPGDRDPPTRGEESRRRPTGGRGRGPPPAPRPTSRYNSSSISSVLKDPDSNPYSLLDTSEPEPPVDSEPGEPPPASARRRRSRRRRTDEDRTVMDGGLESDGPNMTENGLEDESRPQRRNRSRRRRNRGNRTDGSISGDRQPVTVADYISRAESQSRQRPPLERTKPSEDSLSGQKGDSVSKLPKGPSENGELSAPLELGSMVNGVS

The target in this test is forkhead box P3 (FOXP3), endogenous in HEK293T cells (human (endogenous in HEK293T)) (UniProt Q9BZS1). Briefly: affinity purification with mass spectrometry; HEK293T lysate in non-denaturing lysis buffer; anti-FOXP3 antibody with protein A/G magnetic beads; LC-MS/MS; IgG precipitate as negative control.

Results are given in words; binding and its absence hold for the method and conditions named. In cells and extracts the contact can be indirect. These calls come from enrichment with a bait or labelling near it, and not all partners need be listed.

Consider “FMR1 autosomal homolog 1 (FXR1), endogenous in HEK293T cells (from UniProt P51114 1-621)”, for which the binding result was “binds”.

Consider “FXR2, endogenous in HEK293T cells (from UniProt P51116 1-673)”, for which the binding entry is given as “binds”.
